Test results published in PubChem BioAssay AID1508600 (Functional Genomics Laboratory (NCATS/FGL), 2020).
The campaign covered roughly 53,000 sequences. About 3,700 (7%) were called active.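 How the source made its calls: active means gene knockdowns whose robust z-score for IL-1 alpha signal is at least 2 or at most -2, so actives lie on both sides; inactive means the rest.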 The list shows a part of the results.

Assay: Components of the Cytosolic LPS Sensing Pathway: Gene Identification via Genome-wide siRNA Screen;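 further: robust z of the log signal after scaling to non-targeting control siRNA wells of the plate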
Conditions: RAW264.7 macrophages, IL-1a HTRF, actives lie on both sides, screened at 100 nM (by protocol), cells primed 5 h with Pam3CSK4 first
How it was run: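 Mouse macrophage line RAW264.7 is transfected with siRNA (100 nM final), grown 48h, primed with TLR ligand Pam3CSK4 5 h and given intracellular LipidA 24 h. IL-1a in supernatant is read by HTRF and viability by luminescence.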

Sequence	z-score
GGCCUUUCACUUUCACUGGTT against Car6	inactive: 0.383
GGAAGGAGAGACCAUUGAGTT against Nudt1	inactive: -1.48
GCAUCAACUGCUGGUCUAGTT against Spata31d1a	inactive: -1.31
GCAGAAAAAGGAAGGCCACTT against Xlr3c	inactive: 0.668
GGCGCAGUAUCACAGUCUUTT against Tle1	inactive: 1.02
GGUCUACUUUUACGUCUCCTT against Nfatc4	inactive: -0.339
GGUGUUCAAGUACCAGUAUTT against Egln2	inactive: -0.421
CCAGGAACCUAUUGAAUCUTT against Plpp7	inactive: 1.15
GAUGCUCGAGAAUCUACUCTT against Olfr284	inactive: 1.09
GGUCAAUACAAAGAAACUATT against Rabl2	inactive: 0.226
CGACUUCAUAAUUAUGCAATT against Als2	inactive: -1.43
GGUUUUCUAUGGAAGAGAUTT against Igdcc4	inactive: 0.835
GGUGGUUUACCAAACGGUGTT against Ces2g	inactive: -0.00874
GGUAUUCACCAUUAUGACUTT against Olfr186	inactive: -1.49
GCCCUUAUUAAACCAUUUGTT against Usp9x	inactive: -0.641
GGACACAGUUGAAAAGGUUTT against Kcnh1	inactive: -1.65
GGAUUUCAUGUUUGAGAUCTT against Unc13b	inactive: -1.77
GGAAUUUGUCAACCGGACCTT against St6galnac6	active: 3.31
GCGGCUACAGAUCCUAAUGTT against Khsrp	inactive: 0.32
GCUUUGAUGUCGAUGGGCUTT against Arg1	active: -2.01
CCACCUGGUUUAUCAAAAUTT against Cnot4	inactive: -0.12
GGUAGAAGGUCCUGAAGAATT against Clybl	inactive: 0.732
GGGCUGAUUGACAAGUACUTT against Miox	inactive: 1.68

Sequence	z-score
GCCUGGAACGAACUCUUUUTT against Zbtb43	inactive: 1.28
UACAUACAGGCUGUCUGUUTT against Olfr181	inactive: 0.0754
GGCAGUUAUGAUAAAGAUUTT against Slc25a16	inactive: -0.896
ACUGUAUACAAUUUCUUGCTT against Olfr206	inactive: 0.794
GGUCGAUCCAAGGAAAGAUTT against Nipsnap2	inactive: -0.572
GAACUUGAUUGUCCUCCUGTT against Mc2r	inactive: 0.0964
CCUUUGUAGUGCUAGUUAUTT against Tmem181a	inactive: -1.55
UGGGAAGGUGCUCACUGAGTT against Dnph1	active: -2.53
GGUAACUGGGAUUGUAUUUTT against Cbln4	inactive: -0.41
GGGAAAGAUAGUAGAAGUCTT against Gmpr2	inactive: 0.353
GGAGUGAAUACUGGUGCUGTT against Crip2	inactive: 0.453
GGUACGGUGUUUUGGAUACTT against Fam174a	inactive: 0.00664
GCCUGUUCCGCCAUUCAUGTT against Flii	inactive: -0.2
GGGUCAGUCAGGAAUGUUGTT against Mad2l1	inactive: -0.233
CCCUAUGACAAGAAAAAGCTT against Rpl13a	inactive: 0.489
GGUGAAAAACUAUAGCAACTT against Mtx2	inactive: 0.216
GCAAAUCAAACGAUCAGCUTT against Cxxc1	inactive: -1.51
GCUCUUUCUUCAUUCCACATT against Krtap5-5	inactive: 1.29
GGUAGAGUACCCUGUCAUGTT against Mgst3	inactive: -0.767
GCCUUACGUGUCAGACUAUTT against Theg	inactive: -0.436
CGAUAUGCAUGCGAAUAGATT against Rtl3	inactive: -0.0384
GCAGUAUUUUGCUAUCAUATT against Ccdc63	inactive: 0.529
GGGAUAACUCACACCACGGTT against Bscl2	inactive: -0.224

Looked up above.
z-score with GGUAGAGUACCCUGUCAUGTT against Mgst3 reads inactive: -0.767
z-score with UACAUACAGGCUGUCUGUUTT against Olfr181 reads inactive: 0.0754

More entries follow:

Sequence	z-score
AUCGAAACCCUGGAGUCGUTT against Nrp	inactive: -1.47
GGAUGGCUUUCAUAUCCGATT against Rpl10	inactive: 1.12
GGAUGUUAAAGCCAUAUACTT against Msh6	inactive: -0.788
GCAAGACACUUGAUAACUCTT against Znrd1as	active: 2.34
GGCUAAAAAAGACUUGGAATT against Pms1	inactive: 0.0582
GCCGUAACUGCUCUGAAUGTT against Rnf34	inactive: 0.28
GAACUUGAUCCUCCCUGUCTT against Bglap3	inactive: -0.925
CCUUAUCAAAAGCAUGCUUTT against Uhmk1	inactive: 0.926
CGAUCAACUAUGCCAUUGGTT against Rpusd1	inactive: -1.91
GGUGAUUUUAAUAUGCCUGTT against Cox15	inactive: -0.029
GGUGACCAAGAUGCUGUUUTT against Nmur1	inactive: -0.803
GGAUAUGGUUUUUAGACACTT against Stimate	inactive: 0.155
AUGACUAGAUACUCAGAUGTT against 4930451E10Rik	inactive: 1.19
GCCGGAUACUCAAAUAACGTT against Svs5	inactive: -1.23
GGAGGAUGCAGCUAACAAUTT against Tuba8	inactive: 0.0966
GGUCGGUUGCUUUAGUGAATT against Magee2	inactive: 1.42
GGCUAAAGCGCAAAAGGGCTT against Nav1	inactive: 0.492
GGCAAAGUACUACGUGCAGTT against Sh3bp5	inactive: -0.225
GGAUCAAUGCUAAGCUCCATT against Olfr1176	inactive: 0.0409
GGGCCAGGUAUUCAUGGAATT against Ciapin1	inactive: -0.0694
CCAUCUUGAGUGAUAAGAATT against St3gal4	inactive: -0.0981
GGAUAUGCUCUCUUGGCUCTT against Ctsk	active: -2.07
